# Test results from PubChem BioAssay AID493014 (National Center for Advancing Translational Sciences (NCATS), 2011).
# The whole screen tested about 340,000 compounds, of which about 170 (0.05%) were called active. The shares of active, inactive and inconclusive entries below differ from those in the screen. Calls follow the shape of the dose curve; as a rule, active = well fitted inhibition curve with a large enough effect in the signal ratio, with a control signal flat (not every such curve was filed as active); inconclusive = small, poorly fitted or top-dose-only effect, or effect the other way, or a change in a side signal; inactive = flat fitted curve, though single readings scatter; the % refers to the signal ratio. A potency beside an inconclusive call is a rough fit, not a confirmed value.
# Assay: qHTS Assay to Find Inhibitors of Chronic Active B-Cell Receptor Signaling;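 as to activity change, negative = inhibition: plate controls were basal doxycycline-induced cells for no effect and cells given 10 µM MG132 for full effect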
# Conditions: ABC-DLBCL IkBa-CBG/CBR reporter, luminescence ratio (green luciferase fused to IkBa over red control in TMD8 lymphoma cells), 4 h; activity change, negative = inhibition: at 46.1 µM (top of the series) unless noted
# How it was run: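 Compounds up to 46 uM were incubated four hours with TMD8 cells whose green CBG68 luciferase is fused to IkappaBalpha; red CBR luminescence normalised the signal, and concentration-effect curves were fitted to fusion, red and ratio data.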
# Potency is read from the fitted curve at half-maximal effect.
SMILES,"activity change, negative = inhibition",Potency
Cc1ccc(C)c(/C=N/Nc2nc3ccccc3c(=O)n2O)c1,inconclusive: 0.872%,
CCc1nc(N[C@@H](CC(C)C)C(=O)O)c2oc3ccccc3c2n1,inconclusive: 0.223%,
C#CC(CC)(CC)NC(=O)c1ccc(Br)s1,inconclusive: 7.07%,
Cc1ccc(NC(=O)COC(=O)c2ccc([N+](=O)[O-])o2)cc1S(=O)(=O)N1CCCCC1,inactive: 2.9%,
COc1ccc(-c2nnc(SCC(=O)c3ccc[nH]3)o2)cc1,,"inconclusive: 20.6 µM [falling, partial curve]"
COc1ccc(CCn2c(=N)c(C(=O)NC3CCCC3)cc3c(=O)n4ccccc4nc32)cc1,inactive: 1.27%,
Cc1cccc(N2CCN(C(=O)c3cccn4c(=O)c5c(C)c(C)sc5nc34)CC2)c1C,inconclusive: -8.45%,
Cc1[nH]c2ccccc2c1C1(O)C(=O)N(C(C)C)c2ccccc21 (centres undefined),,"inconclusive: 0.00651 µM [falling, full curve, poor fit]"
COc1cc2c(c(OCC(=O)NC(C)C)c1)C(=O)O[C@@H](C)CCCC(=O)CCCCC2,inactive: -4.95%,
O=C(Cc1ccccc1)NNC(=S)Nc1ccccc1,inconclusive: 1.19%,
Cc1cccc(OCC(=O)Nc2ccc3c(c2)nc(CN2CCCCC2)n3C)c1,inconclusive: -0.433%,
O=C(CCl)N1N=C(c2cccs2)CC1c1ccco1 (centres undefined),inconclusive: 17.6%,
COc1cccc([C@@H]2Oc3ccc(Br)cc3C(=O)[C@H]2OC(=O)NC2CCCC2)c1,inconclusive: -11.6%,
CCN(C[C@H]1N[C@@](CC)(C(=O)OC)[C@H]2C(=O)N(C)C(=O)[C@@H]12)C(=O)COC,inactive: -0.644%,
COC(=O)c1ccc2c(=O)n(Cc3ccc(C(=O)NC(C)C)cc3)c(=S)[nH]c2c1,inconclusive: -4.37%,
O=C(CSCc1ccc(C(=O)O)cc1)Nc1ccccc1,inconclusive: -1.54%,
COc1ccccc1CNC(=O)N1CCN(S(=O)(=O)c2ccccc2)CC1,inactive: 4.29%,
CNc1nc(NCCOC23CC4CC(CC(C4)C2)C3)nc(OCC(F)(F)F)n1,inconclusive: 0.833%,
COc1cccc(/C=C2\NC(=O)NC2=O)c1O,inactive: 7.44%,
Cc1ccc2cc(CN(CCCO)S(=O)(=O)c3cccc4nsnc34)c(=O)[nH]c2c1C,inconclusive: 1.28%,
O=C(/C=C/c1ccncc1)c1ccc2c(c1)OCCO2,,"inconclusive: 35.5 µM [rising, single point]"

# An excerpt from above in order of count of non-hydrogen atoms, low to high:
SMILES,"activity change, negative = inhibition",Potency
C#CC(CC)(CC)NC(=O)c1ccc(Br)s1,inconclusive: 7.07%,
O=C(/C=C/c1ccncc1)c1ccc2c(c1)OCCO2,,"inconclusive: 35.5 µM [rising, single point]"
COc1ccccc1CNC(=O)N1CCN(S(=O)(=O)c2ccccc2)CC1,inactive: 4.29%,

# The results go on:

SMILES,"activity change, negative = inhibition",Potency
O=C(Nc1nc2ccccc2[nH]1)C1CCC1,,"inconclusive: 20 µM [falling, single point]"
NC1=NC(=O)/C(=C/c2ccsc2)S1,inconclusive: -13.8%,
C=CCNc1nc(Nc2ccc([N+](=O)[O-])cc2)nc(OC)n1,inconclusive: 13.3%,
O=C(N/N=C\c1ccc[nH]1)C1COc2ccccc2O1 (centres undefined),,"inconclusive: 11.2 µM [rising, partial curve, poor fit]"
CN1C(=O)C(O)(CC(=O)/C=C/c2ccco2)c2cc(Br)ccc21 (centres undefined),,"inconclusive: 17.8 µM [falling, single point]"
CCC1Oc2ccc(C)cc2N(CC(=O)N2CCN(c3ccccc3OC)CC2)C1=O (centres undefined),inactive: -4.62%,
CCOc1ccc(C2C(C#N)=C(C)NC3=C2C(=O)c2ccccc23)cc1 (centres undefined),,"inconclusive: 16.4 µM [rising, single point]"
COc1ccc(C(=O)/C=C/c2ccccc2)c(OC)c1,,"inconclusive: 25.1 µM [falling, single point]"
CCc1ccc(NC(=O)c2sccc2-n2cccc2)cc1,inconclusive: 11.3%,
O=C(CCN1C(=O)/C(=C/c2ccccc2Cl)SC1=S)NNC(=O)c1ccccc1O,inactive: 0.944%,
Cc1ccccc1C(=O)NNc1ncnc2c1cnn2-c1cccc(Cl)c1,inconclusive: 16.6%,
O=C(N/N=C1\CCc2ccccc21)c1ccc(O)cc1,,"inconclusive: 3.16 µM [falling, partial curve]"
O=C(COc1ccccc1F)NC1CCN(Cc2ccccc2)CC1,inconclusive: 24.6%,
CCCCOC(=O)C[N+](C)(C)CCOC1CC2CCC1(C)C2(C)C (centres undefined),inactive: -21.8%,
CC(C)(C)c1ccc(CSc2nc(N)cc(=O)[nH]2)cc1,inactive: -4.79%,
CCc1ccc(NC(=O)C2CCN(S(=O)(=O)c3cccc(-c4noc(C)n4)c3)CC2)cc1,inactive: -3.28%,
Cc1ccc(C(Sc2ccccc2)C(Cn2cncn2)C(=O)c2ccccc2)cc1 (centres undefined),,"inconclusive: 29.1 µM [rising, single point]"
CCOc1ccccc1NC(=O)NCc1ccccn1,inactive: 2.93%,
C[C@@H](C(=O)Nc1nc(-c2ccccn2)cs1)N1C(=O)C2CCCCC2C1=O (some centres undefined),inconclusive: 28.8%,
CCOC(=O)C1CCN(C(=O)c2cc3cc(Cl)ccc3[nH]2)CC1,,"inconclusive: 17.8 µM [falling, partial curve]"
COc1ccc(OC)c(-c2nc3c(C)n[nH]c(=O)c3[nH]2)c1,inconclusive: 9.49%,

SMILES,"activity change, negative = inhibition",Potency
O=C(NC(NC(=S)Nc1ccccc1Cl)C(Cl)(Cl)Cl)c1cccc(Cl)c1 (centres undefined),,"inconclusive: 14.6 µM [rising, partial curve, poor fit]"
O=C(Nc1cccc(NC(=O)c2cccs2)c1)c1ccco1,,"inconclusive: 5.17 µM [falling, full curve]"
CCOc1ccc(NC(=O)NCc2ccco2)cc1,,"inconclusive: 12.6 µM [falling, partial curve]"
COC(=O)c1ccccc1NC(=O)CC(=O)Nc1ccccc1C(=O)OC,inconclusive: 11.8%,
COc1ccc(S(=O)(=O)NC2CCCCC2)c(C)c1C,inconclusive: 6.58%,
Cc1ccc(CNC(=O)Cn2cccc2)cc1,inconclusive: 0.572%,
CN1CCN(C(c2ccc(C(F)(F)F)cc2)c2ccc3cccnc3c2O)CC1 (centres undefined),,"inconclusive: 20 µM [falling, partial curve]"
CCOc1ccc(CNC(=O)CN2N=C(c3ccccc3)CCC2=O)cc1OC,inactive: -11.1%,
O=C(NCc1ccc2c(c1)OCO2)C1CCCCC1,inconclusive: 10.8%,
COc1ccc(NC(=S)NNC(=O)Cn2nc([N+](=O)[O-])cc2C)cc1,inconclusive: 4.87%,
CN(Cc1cc(=O)[nH]c2ccccc12)C(=O)c1ccccc1,inconclusive: -24.1%,
Cc1ccc(S(=O)(=O)Nc2ccccc2CNc2ncc(Br)cc2Br)cc1,inconclusive: 3%,
O=C(CSc1nc(N2CCOCC2)nc(N2CCOCC2)n1)Nc1ccc(Cl)cc1Cl,inactive: 5.32%,
CCN(CC)C(=O)CC(c1ccc(OC)cc1)c1c(OC)cc(OC)c2ccc(=O)oc12 (centres undefined),inconclusive: 0.856%,
Cc1ccc(C(=O)NC2CCN(CC(=O)Nc3cccc([N+](=O)[O-])c3)CC2)cc1,inactive: -1.56%,
Cc1ccc(O)c(N=Cc2cc(Cc3ccccc3)cc([N+](=O)[O-])c2O)c1,inactive: -3.78%,
c1ccc(CNc2c(-c3cccc(SC4CCCCC4)c3)nc3ccccn23)cc1,inactive: -1.11%,
Cc1ccc(OCC(O)CN2C(=O)NC(C)(C)C2=O)c(C)c1 (centres undefined),inconclusive: -2.46%,
CCCCc1nn(-c2cc(Cl)ccc2OC)c2c1C(=O)CCC2,inconclusive: -20.7%,
Cc1ccc(NC(=S)NNC(=O)c2ccc(N3CCOCC3)c([N+](=O)[O-])c2)cc1Cl,inactive: -7.77%,
COc1ccccc1NC(=O)Nc1nc(CC(=O)Nc2cc(F)ccc2F)cs1,,"inconclusive: 29.1 µM [falling, single point]"

SMILES,"activity change, negative = inhibition",Potency
COc1ccccc1CNC(=O)CN(c1ccccc1OC)S(C)(=O)=O,inactive: -27%,
CC(=O)N1CCC(C(=O)Nc2nc(-c3ccccc3)ns2)CC1,inconclusive: 23.8%,
CCS(=O)(=O)c1ccc2oc(Nc3ccc(OC)cc3)nc2c1,inconclusive: 5.71%,
Cc1ccc2nc(NC(=O)CSc3ncnc4c3oc3ccccc34)sc2c1,,"inconclusive: 23.1 µM [falling, partial curve]"
COc1ccc(N2CCN(C(=O)c3c(-c4ccccc4)noc3C)CC2)cc1,inconclusive: -15.9%,
CCOc1ccc(NC(=O)CNC(=O)c2nn(-c3ccc(OC)c(OC)c3)c(=O)c3ccccc23)cc1,inactive: 7.54%,
CCOc1ccc(-c2nc(N)ncc2Oc2ccc(OC)cc2)c(O)c1,,"inconclusive: 10 µM [falling, partial curve, poor fit]"
COc1ccccc1N(CC(=O)N/N=C/c1c(O)ccc2ccccc12)S(C)(=O)=O,inconclusive: -0.0202%,
Cc1c(Cl)cccc1NC(=O)Nn1cnnc1,inconclusive: -5.39%,
Cc1ccc(S(=O)(=O)N2CCN(C(=O)c3cc(=O)[nH]c4ccccc34)CC2)c(C)c1,inactive: -6.66%,
COc1ccc(CNC(=O)c2cc(C)nc3ccccc23)cc1OC,inactive: 0.735%,
Cc1nccc(-c2cccc(NC(=O)c3ccccc3Cl)c2)n1,inconclusive: -1.08%,
CCOC(=O)c1oc2ccccc2c1N,inconclusive: 8.07%,
O=C(NCc1ccco1)c1cc2cc3ccc(Cl)cc3nc2o1,,"inconclusive: 0.461 µM [rising, full curve, poor fit]"
O=C(Nc1ccccn1)C1CCN(C(=O)Nc2ccccc2)CC1,inactive: -0.021%,
O=C(c1cc(Cl)ccc1Cl)N1CCN(c2ccccn2)CC1,inconclusive: 12.8%,
Fc1ccc2[nH]c3c(N4CCN(c5ccccc5)CC4)ncnc3c2c1,inconclusive: -2.71%,
Cc1ccc(C(=O)N/C(=C\c2cccs2)C(=O)N2CCCCCC2)cc1,inconclusive: -0.36%,
O=C(CSc1nc2ccccc2s1)NCCOc1ccccc1,inconclusive: 15.5%,
Cc1cccc(OCC(=O)N2CCN(c3nnc(-c4ccccc4)c4ccccc34)CC2)c1,inconclusive: -29.8%,
O=C(Nc1cccnc1)c1cccc(-c2cc3ccccc3oc2=O)c1,inconclusive: 5.77%,

# Reformatted: 6 of the compounds above
SMILES	activity change, negative = inhibition	Potency
COc1ccccc1CNC(=O)CN(c1ccccc1OC)S(C)(=O)=O	inactive: -27%	
COc1ccc(N2CCN(C(=O)c3c(-c4ccccc4)noc3C)CC2)cc1	inconclusive: -15.9%	
CCOc1ccc(NC(=O)CNC(=O)c2nn(-c3ccc(OC)c(OC)c3)c(=O)c3ccccc23)cc1	inactive: 7.54%	
COc1ccccc1N(CC(=O)N/N=C/c1c(O)ccc2ccccc12)S(C)(=O)=O	inconclusive: -0.0202%	
O=C(c1cc(Cl)ccc1Cl)N1CCN(c2ccccn2)CC1	inconclusive: 12.8%	
O=C(CSc1nc2ccccc2s1)NCCOc1ccccc1	inconclusive: 15.5%	
